According to patent US20250064888A1, “COMPOSITIONS AND METHODS FOR TREATING CYTOKINE STORM” (SHENZHEN HIGHTIDE BIOPHARMACEUTICAL LTD., priority 2022, published 2025):
At least one compound was matched to its structure with a doubt left.

Tested on: LPS-induced mice model
Experiment: Survival rate in LPS-induced mice model
Type: in vivo, C57BL/6J mice
Settings: G6 positive control, 4 mg/kg/day ig; P<0.01
Experimental: Male SPF C57BL/6J mice (6-8 weeks old with body weight about 18-20 g) used in the study were purchased from Shanghai SLAC Laboratory Animal Co., Ltd. All the care and use of animals followed 3R principles and relevant regulations.
One hundred (100) male C57BL/6J mice (18-20 g) were used for the study. After acclimated for 7 days, the inflammation mice model, which is characterized by a severe acute systemic inflammation response was established by a single tail vein injection of LPS (30 mg/kg).
The model animals were randomly divided into 7 groups: vehicle control group (G0), test group 1 (G1)˜test group 5 (G5) and positive control group (G6), of which there were 15 mice/group in G0˜G5 and 10 mice/group in G6. Day 1 was defined as the day on which tail vein injection of LPS (30 mg/kg), treatment start from the same day of the model establishment (Day 1) through Day 5 for consecutive 5 days (120 h after LPS induction). Except for the first dose on Day1 which were set at 5 min before LPS injection, 5 min after LPS injection, 1 hour before LPS injection and 1 hour after LPS injection respectively (Detailed information see the administration schedule in table 1), each groups have the same time schedules for administration (8 h after LPS injection for the second dose and bid with once in the morning, once in the evening for the following days). […]

C[C@@H]1C[C@H]2[C@@H]3CCC4=CC(=O)C=C[C@]4(C)[C@@]3(F)[C@@H](O)C[C@]2(C)[C@@]1(O)C(=O)CO [DEX, Dexamethasone]
survival rate as compared with the vehicle control group (Log-rank test): significantly increased
